According to patent US20230101273A1, “MESOIONIC INSECTICIDES” (FMC Corporation, priority 2020, published 2023):
Some entries share one result that the patent states for a list of compounds.

Key:
Assay type in all cases: in vivo
[1] = tested on: cotton melon aphid (Aphis gossypii (Glover)); test: Test F: control of cotton melon aphid through contact and/or systemic means; settings: sprayed at 50 ppm; 6 days; okra plant
Procedure: (§1) Test compounds were formulated using a solution containing 10% acetone, 90% water and 300 ppm Activator 900 non-ionic surfactant (Loveland Products, Loveland, Colo., USA). The formulated compounds were applied in 1 mL of liquid through an atomizer nozzle positioned 1.27 cm (0.5 inches) above the top of each test unit. Test compounds were sprayed at the rates indicated, and each test was replicated three times.
[…] This was pre-infested with 30-40 insects on a piece of leaf according to the cut-leaf method, and the soil of the test unit was covered with a layer of sand.
Test compounds were formulated and sprayed at 50 ppm. After spraying, the test units were maintained in a growth chamber for 6 days at 19° C. and 70% relative humidity. Each test unit was then visually assessed for insect mortality.

[2] = tested on: fall armyworm (Spodoptera frugiperda (J. E. Smith)); test: Test B: control of fall armyworm on corn plant, spray; settings: 6 days, 1-day-old larvae on corn plant
[3] = tested on: green peach aphid (Myzus persicae (Sulzer)); test: Test E: control of green peach aphid through contact and/or systemic means; settings: sprayed at 50 ppm; 6 days; radish plant
Procedure: as §1
For evaluating control of green peach aphid (Myzus persicae (Sulzer)) through contact and/or systemic means, the test unit consisted of a small open container with a 12-15-day-old radish plant inside. This was pre-infested by placing on a leaf of the test plant 30-40 aphids on a piece of leaf excised from a culture plant (cut-leaf method). The aphids moved onto the test plant as the leaf piece desiccated. After pre-infestation, the soil of the test unit was covered with a layer of sand.
Test compounds were formulated and sprayed at 50 ppm. After spraying of the formulated test compound, each test unit was allowed to dry for 1 hour and then a black, screened cap was placed on top. The test units were held for 6 days in a growth chamber at 19-21° C. and 50-70% relative humidity. Each test unit was then visually assessed for insect mortality.

[4] = tested on: diamondback moth (Plutella xylostella (L.)); test: Test A: control of diamondback moth on mustard plant, spray; settings: 6 days, neonate larvae on mustard plant
[5] = tested on: corn planthopper (Peregrinus maidis (Ashmead)); test: Test C: control of corn planthopper through contact and/or systemic means; settings: sprayed at 50 ppm; 6 days; nymphs on corn plant
Procedure: as §1
For evaluating control of corn planthopper (Peregrinus maidis (Ashmead)) through contact and/or systemic means, the test unit consisted of a small open container with a 3-4-day-old corn (maize) plant inside. White sand was added to the top of the soil prior to application of the test compound.
(§2) Test compounds were formulated and sprayed at 50 ppm. After spraying of the formulated test compound, the test units were allowed to dry for 1 h before they were post-infested with ˜15-20 nymphs (18-to-21-day-old). A black, screened cap was placed on the top of each test unit, and the test units were held for 6 days in a growth chamber at 22-24° C. and 50-70% relative humidity. Each test unit was then visually assessed for insect mortality.

[6] = tested on: potato leafhopper (Empoasca fabae (Harris)); test: Test D: control of potato leafhopper through contact and/or systemic means; settings: sprayed at 50 ppm; 6 days; adults on Soleil bean plant
Procedure: as §1
For evaluating control of potato leafhopper (Empoasca fabae (Harris)) through contact and/or systemic means, the test unit consisted of a small open container with a 5-6-day-old Soleil bean plant (primary leaves emerged) inside. White sand was added to the top of the soil, and one of the primary leaves was excised prior to application of the test compound.
as §2, with “1 hour” for “1 h”, “with 5 potato leafhoppers (18-to-21-day-old adults).” for “with ˜15-20 nymphs (18-to-21-day-old).”, “of the” for “of each”, “at 20°” for “at 22-24°”, “and 70%” for “and 50-70%”

Row | SMILES | mortality [1] | control efficacy: feeding damage (40% or less feeding damage and/or 100% mortality) ([2]; sprayed at 0.4 ppm) | control efficacy: feeding damage (40% or less feeding damage and/or 100% mortality) ([2]; sprayed at 2 ppm) | control efficacy: feeding damage (40% or less feeding damage and/or 100% mortality) ([2]; sprayed at 10 ppm) | mortality [3] | control efficacy: feeding damage (40% or less feeding damage and/or 100% mortality) ([4]; sprayed at 0.4 ppm) | control efficacy: feeding damage (40% or less feeding damage and/or 100% mortality) ([4]; sprayed at 2 ppm) | control efficacy: feeding damage (40% or less feeding damage and/or 100% mortality) ([4]; sprayed at 10 ppm) | mortality [5] | mortality [6]
1 | Cc1cccn2c(=O)c(-c3cc(C#CC4CC4)cc(OC4CC4)c3)c([O-])[n+](Cc3cnc(Cl)s3)c12 [Compound 64] | at least 80% | ≤ 40% | ≤ 40% | ≤ 40% | at least 80% | ≤ 40% | ≤ 40% | ≤ 40% | at least 80% | 
2 | Cc1cccn2c(=O)c(-c3cccc(C#CCC4CCCCC4)c3)c([O-])[n+](Cc3cnc(Cl)s3)c12 [Compound 43] | at least 80% |  |  | ≤ 40% | at least 80% |  | ≤ 40% | ≤ 40% | at least 80% | at least 80%
3 | COc1cc(C#CC2CCCCC2)cc(-c2c([O-])[n+](Cc3cnc(Cl)s3)c3c(C)cccn3c2=O)c1 [Compound 16] | at least 80% | ≤ 40% | ≤ 40% | ≤ 40% | at least 80% | ≤ 40% | ≤ 40% | ≤ 40% | at least 80% | 
4 | Cc1cccn2c(=O)c(-c3cc(C#CC(C)C)cc(OC4CC4)c3)c([O-])[n+](Cc3cnc(Cl)s3)c12 [Compound 66] | at least 80% | ≤ 40% | ≤ 40% | ≤ 40% | at least 80% | ≤ 40% | ≤ 40% | ≤ 40% | at least 80% | 
5 | Cc1cccn2c(=O)c(-c3cccc(C#CC4CCCCC4)c3)c([O-])[n+](Cc3cnc(Cl)s3)c12 [Compound 36] | at least 80% |  | ≤ 40% | ≤ 40% | at least 80% |  | ≤ 40% | ≤ 40% | at least 80% | at least 80%
6 | CCC#Cc1cc(OCCOC)cc(-c2c([O-])[n+](Cc3cnc(Cl)s3)c3c(C)cccn3c2=O)c1 [Compound 85] | at least 80% | ≤ 40% | ≤ 40% | ≤ 40% | at least 80% | ≤ 40% | ≤ 40% | ≤ 40% |  | at least 80%
7 | Cc1cccn2c(=O)c(-c3cccc(C#CC4CCCC4)c3)c([O-])[n+](Cc3cnc(Cl)s3)c12 [Compound 38] | at least 80% | ≤ 40% | ≤ 40% | ≤ 40% |  | ≤ 40% | ≤ 40% | ≤ 40% | at least 80% | 
8 | Cc1cccn2c(=O)c(-c3cccc(C#Cc4ccc(F)cc4)c3)c([O-])[n+](Cc3cnc(Cl)s3)c12 [Compound 39] |  | ≤ 40% | ≤ 40% | ≤ 40% |  | ≤ 40% | ≤ 40% | ≤ 40% |  | at least 80%
9 | CCOc1cc(C#CC(C)(C)C)cc(-c2c([O-])[n+](Cc3cnc(Cl)s3)c3c(C)cccn3c2=O)c1 [Compound 80] | at least 80% | ≤ 40% | ≤ 40% | ≤ 40% | at least 80% | ≤ 40% | ≤ 40% | ≤ 40% | at least 80% | 
10 | Cc1cccn2c(=O)c(-c3cc(C#CC4CC4)cc(OCC(C)C)c3)c([O-])[n+](Cc3cnc(Cl)s3)c12 [Compound 72] | at least 80% | ≤ 40% | ≤ 40% | ≤ 40% | at least 80% | ≤ 40% | ≤ 40% | ≤ 40% | at least 80% | 
11 | CCC#Cc1cc(OCC)cc(-c2c([O-])[n+](Cc3cnc(Cl)s3)c3c(C)cccn3c2=O)c1 [Compound 79] | at least 80% | ≤ 40% | ≤ 40% | ≤ 40% | at least 80% | ≤ 40% | ≤ 40% | ≤ 40% | at least 80% | 
12 | Cc1cccn2c(=O)c(-c3cc(C#CC4CC4)cc(OC(C)C)c3)c([O-])[n+](Cc3cnc(Cl)s3)c12 [Compound 50] | at least 80% | ≤ 40% | ≤ 40% | ≤ 40% | at least 80% | ≤ 40% | ≤ 40% | ≤ 40% | at least 80% | 
13 | Cc1cccn2c(=O)c(-c3cc(C#CC(C)(C)C)cc(OC4CC4)c3)c([O-])[n+](Cc3cnc(Cl)s3)c12 [Compound 83] | at least 80% |  | ≤ 40% | ≤ 40% | at least 80% | ≤ 40% | ≤ 40% | ≤ 40% |  | 
